This passage reports binding results from paper PMC10019453, “Integrative structural analysis of the type III secretion system needle complex from Shigella flexneri” (Protein Science : A Publication of the Protein Society, 2023).

Chains of the proteins cited; added tags and fusions are not shown.
UniProt P0A223: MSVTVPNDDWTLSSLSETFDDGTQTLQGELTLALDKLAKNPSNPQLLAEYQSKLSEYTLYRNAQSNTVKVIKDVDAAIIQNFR

In this test the target is N-terminal Strep-tagged MxiH[SctF] (Shigella flexneri) (UniProt P0A223). Briefly: affinity purification with mass spectrometry; needle complexes solubilised from the membrane pellet (50 mM HEPES, 100 mM NaCl, 5 mM EDTA, 0.04% Triton X-100 pH 8.00) and purified by the Strep-tag on MxiH; proteins found by mass spectrometry.

No constants are given. Whether binding was seen depends on the method and setting. Binding seen in cells or lysates may run through a third protein. A yes stands for co-enrichment or nearness to the bait. Other partners may have been found.

B1: MxiM[SctG] (natural protein)
chain: CALKSSSNSEKEWHIVPVSKDYFSIPNDLLWSFNTTNKSINVYSKCISGKAVYSFNAGKFMGNFNVKEVDGCFMDAQKIAIDKLFSMLKDGVVLKGNKINDTILIEKDGEVKLKLIRGI
modifications: lipidated N-terminus
notes: MxiM[SctG], pilotin of the Shigella flexneri T3SS; also called pilotin; pilot protein
For B1, the binding entry was “binds”.
